Data as given in PMC3540053.
Results are given in words; binding and its absence hold for the method and conditions named.

Target: T1, OsCOI2 (Oryza sativa) (UniProt Q84QA7)
T1 sequence: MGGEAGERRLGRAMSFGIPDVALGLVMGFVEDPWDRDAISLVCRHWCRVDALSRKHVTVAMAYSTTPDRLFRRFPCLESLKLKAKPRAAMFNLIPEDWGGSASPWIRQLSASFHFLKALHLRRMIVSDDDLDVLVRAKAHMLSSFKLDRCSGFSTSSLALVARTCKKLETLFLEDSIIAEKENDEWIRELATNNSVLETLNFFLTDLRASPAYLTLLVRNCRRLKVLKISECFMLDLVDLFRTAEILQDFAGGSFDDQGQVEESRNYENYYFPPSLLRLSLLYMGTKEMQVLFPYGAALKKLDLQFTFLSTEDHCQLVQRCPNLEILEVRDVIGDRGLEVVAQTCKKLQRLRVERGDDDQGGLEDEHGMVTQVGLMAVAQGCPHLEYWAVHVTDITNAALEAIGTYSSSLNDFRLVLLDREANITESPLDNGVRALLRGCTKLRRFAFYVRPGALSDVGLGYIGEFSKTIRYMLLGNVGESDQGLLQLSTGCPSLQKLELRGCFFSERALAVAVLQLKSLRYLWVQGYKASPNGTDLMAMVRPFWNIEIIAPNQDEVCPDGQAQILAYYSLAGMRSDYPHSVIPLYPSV
Test: two-hybrid; OsCOIs as baits in pGBKT7, OsJAZs or JAZs as preys in pGADT7, co-transformed into S. cerevisiae AH109; growth on SD without Ade, His, Leu and Trp (QDO) with 100 µM coronatine, 7 days; graded strong (+++), medium (++), weak (+), undetectable (−)

binding, no binding:
JAZ1 (Arabidopsis thaliana ecotype Columbia)
JAZ2 (Arabidopsis thaliana ecotype Columbia)
JAZ5 (Arabidopsis thaliana ecotype Columbia)
JAZ6 (Arabidopsis thaliana ecotype Columbia)
JAZ12 (Arabidopsis thaliana ecotype Columbia)
